One test deals with T1, HA-TBC1D22B (human) (UniProt Q9NU19).
T1 sequence: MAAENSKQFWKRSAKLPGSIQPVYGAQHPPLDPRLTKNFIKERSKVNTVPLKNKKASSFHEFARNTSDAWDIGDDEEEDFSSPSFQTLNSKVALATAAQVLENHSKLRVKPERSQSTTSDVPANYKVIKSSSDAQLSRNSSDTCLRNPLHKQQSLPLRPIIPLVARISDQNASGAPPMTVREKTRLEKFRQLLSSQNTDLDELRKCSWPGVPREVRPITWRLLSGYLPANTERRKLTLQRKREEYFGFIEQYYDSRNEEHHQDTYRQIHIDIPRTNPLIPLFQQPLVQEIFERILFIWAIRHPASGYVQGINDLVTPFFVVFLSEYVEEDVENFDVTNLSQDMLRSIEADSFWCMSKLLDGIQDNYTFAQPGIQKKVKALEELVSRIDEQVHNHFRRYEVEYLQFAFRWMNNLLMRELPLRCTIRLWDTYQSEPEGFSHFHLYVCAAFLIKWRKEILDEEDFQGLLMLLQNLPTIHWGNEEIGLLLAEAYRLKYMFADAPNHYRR
As to the kind of experiment: co-IP; BT549 lysates (Pierce buffer: 25 mM Tris HCl pH 7.4, 150 mM NaCl, 1 mM EDTA, 1% NP-40, 5% glycerol), 2.5 mg on anti-HA magnetic beads, 30 min RT; immunoblot. On the technique in general: A western blot detects proteins with antibodies after separation by electrophoresis.

Sequences of proteins named here, by UniProt entry; tags and fusion partners are left off.
UniProt Q9H3P7: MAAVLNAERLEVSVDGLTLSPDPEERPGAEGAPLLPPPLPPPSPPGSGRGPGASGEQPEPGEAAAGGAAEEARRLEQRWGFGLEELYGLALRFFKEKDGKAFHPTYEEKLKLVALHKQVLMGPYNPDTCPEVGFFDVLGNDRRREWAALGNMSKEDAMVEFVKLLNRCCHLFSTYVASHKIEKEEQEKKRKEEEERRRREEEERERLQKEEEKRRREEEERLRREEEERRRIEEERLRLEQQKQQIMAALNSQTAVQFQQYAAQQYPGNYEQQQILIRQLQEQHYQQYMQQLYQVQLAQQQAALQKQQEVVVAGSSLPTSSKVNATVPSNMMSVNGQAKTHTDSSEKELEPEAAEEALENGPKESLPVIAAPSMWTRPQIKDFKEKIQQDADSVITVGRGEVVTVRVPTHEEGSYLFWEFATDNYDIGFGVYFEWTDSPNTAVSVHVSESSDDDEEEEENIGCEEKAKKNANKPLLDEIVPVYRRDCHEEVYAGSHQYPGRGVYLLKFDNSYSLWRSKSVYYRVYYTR

The target in a further test is T2, HA-TBC1D22B-RQ (human) (UniProt Q9NU19).
T2 sequence: T1 sequence with R274A, Q309A
Described as above.

Numbering of substitutions follows the chain as printed. Results are given in words; binding and its absence hold for the method and conditions named. In cells and extracts the contact can be indirect. Some entries that bind do so weakly or less than the wild type. Where a sequence is shown, tags or fusion partners need not be part of it.

“Acyl-CoA binding domain containing 3 (ACBD3) (from UniProt Q9H3P7 1-528)”: the binding result with HA-TBC1D22B (human) and with HA-TBC1D22B-RQ (human) was “binds” in each case.

As to “EGFR (from UniProt P00533 25-1210) (receptor)”, the binding result in the test with HA-TBC1D22B (human) and with HA-TBC1D22B-RQ (human) was “binds” each time.

(Values after article PMC12631847.)
